Results from PubChem BioAssay AID540256 (National Center for Advancing Translational Sciences (NCATS), 2011).
About 3,700 (1.2%) of roughly 300,000 compounds were called active. The shares of active, inactive and inconclusive entries below differ from those in the screen. The call rests on the fitted dose curve; tested in HEK293 cells. Where the call is inconclusive, the potency comes from a doubtful curve fit.

Assay: qHTS for Inhibitors of binding or entry into cells for Lassa Virus; further: nearly all actives have a fitted effect of over 50% in size
Settings: Lassa virus pseudotype entry inhibition, cell reporter; activity change, negative = inhibition: at 37.9 µM (top of the series) unless noted
On the % scale 0 is the no-effect control and ±100 the full control effect; potency means the concentration at half of the fitted maximal effect.

| Structure (SMILES) | Potency | activity change, negative = inhibition |
| --- | --- | --- |
| CC(Cc1cccs1)NC(=S)Nc1ccc(F)cc1 (stereo not drawn) | inconclusive: 8.91 µM [inhibitor, partial curve, poor fit] |  |
| Cc1ccc(NC(=O)CSc2ncccn2)c([N+](=O)[O-])c1 | inconclusive: 35.5 µM [activator, single point] |  |
| CCN(CC)C(=O)c1sc2c(c1C)c(=O)n(Cc1ccccc1)c(=O)n2Cc1ccccc1C | inconclusive: 17.8 µM [inhibitor, single point] |  |
| COC(=O)C1C(=O)C2=C(CC1C)NC(C)=C(C(=O)OCCOc1ccccc1)C2c1ccc(C)o1 (stereo not drawn) | inconclusive: 17.8 µM [inhibitor, partial curve, poor fit] |  |
| O=C(CNC(=O)c1ccccc1)OCc1cc(=O)n2nc(C3CCCCC3)sc2n1 |  | inactive: 16.3% [at 46.1 µM] |
| COC(=O)C(O)(c1cn(C)c2ccccc12)C(F)(F)F (stereo not drawn) | inconclusive: 1 µM [activator, full curve, poor fit] |  |
| Fc1cccc(NC(=S)Nc2cccc3ccccc23)c1 |  | inactive: -11.2% [at 46.1 µM] |
| CCn1c(C)csc1=NC(=O)c1ccccc1O | inconclusive: 7.3 µM [activator, partial curve, poor fit] |  |
| COc1ccc(-c2nc3scc(CCNS(=O)(=O)c4ccc(Oc5ccccc5)cc4)n3n2)cc1OC | inconclusive: 31.6 µM [inhibitor, single point] |  |
| CC(C)COc1cccc(-c2cc(C(=O)N/N=C/c3ccncc3)c3ccccc3n2)c1 | inconclusive: 35.5 µM [inhibitor, single point] |  |
| CC(=O)NNC(=S)NCCc1ccccc1 |  | inactive: 0.902% |
| CCN(CC)c1ccc(NC(=O)c2cc(C)nc3c2c(C)nn3-c2ccc(C)cc2)c(C)c1 | inconclusive: 11.2 µM [activator, partial curve] |  |
| Cc1cccc(OCC(=O)Nc2ccc(N3CCN(C(=O)c4ccco4)CC3)cc2)c1 | inconclusive: 25.9 µM [inhibitor, partial curve, poor fit] |  |
| O=C(NCCCN1CCCC1=O)c1cn(-c2ccccc2)nc1-c1ccccc1 |  | inactive: 3.18% |
| COc1ccc(C2c3[nH]c4ccccc4c3CCN2C(=O)CCC2CCCC2)cc1 (stereo not drawn) | inconclusive: 2.82 µM [inhibitor, full curve, poor fit] |  |
| Cc1nn(Cc2ccc(C(=O)N/N=C/c3ccncc3)o2)c(C)c1Cl | inconclusive: 7.94 µM [activator, partial curve, poor fit] |  |
| Oc1ccc(N=C/C=C/c2ccc(Br)cc2)cc1-c1nc2ccccc2s1 | inconclusive: 2.91 µM [activator, full curve, poor fit] |  |
| O=C(CSc1ccc(-c2ccccc2)nn1)NCC1CCCO1 (stereo not drawn) | inconclusive: 28.2 µM [activator, single point] |  |

Another view of some results above:
Structure (SMILES) | Potency | activity change, negative = inhibition
COC(=O)C(O)(c1cn(C)c2ccccc12)C(F)(F)F (stereo not drawn) | inconclusive: 1 µM [activator, full curve, poor fit] | 
O=C(CSc1ccc(-c2ccccc2)nn1)NCC1CCCO1 (stereo not drawn) | inconclusive: 28.2 µM [activator, single point] | 
